Values of other authors in patent US9724544B2, “Vitamin D promoting sunscreen” (priority 2009, dated 2017).
At least one compound was matched to its structure with a doubt left.

Settings: cited from earlier work

CC(C)c1ccc(C(=O)CC(=O)c2ccccc2)cc1 [Eusolex 8020, 4-isopropyl-dibenzoylmethane]
absorption in the vitamin D producing range: relative lack of absorption
